Results from article PMC12343876.
No constants are given. Whether binding was seen depends on the method and setting. Binding seen in cells or lysates may run through a third protein. Some entries that bind do so weakly or less than the wild type.

Protein sequences, listed by entry. Tags and fused reporters are not part of them. Residues count along the entry.
UniProt O00429: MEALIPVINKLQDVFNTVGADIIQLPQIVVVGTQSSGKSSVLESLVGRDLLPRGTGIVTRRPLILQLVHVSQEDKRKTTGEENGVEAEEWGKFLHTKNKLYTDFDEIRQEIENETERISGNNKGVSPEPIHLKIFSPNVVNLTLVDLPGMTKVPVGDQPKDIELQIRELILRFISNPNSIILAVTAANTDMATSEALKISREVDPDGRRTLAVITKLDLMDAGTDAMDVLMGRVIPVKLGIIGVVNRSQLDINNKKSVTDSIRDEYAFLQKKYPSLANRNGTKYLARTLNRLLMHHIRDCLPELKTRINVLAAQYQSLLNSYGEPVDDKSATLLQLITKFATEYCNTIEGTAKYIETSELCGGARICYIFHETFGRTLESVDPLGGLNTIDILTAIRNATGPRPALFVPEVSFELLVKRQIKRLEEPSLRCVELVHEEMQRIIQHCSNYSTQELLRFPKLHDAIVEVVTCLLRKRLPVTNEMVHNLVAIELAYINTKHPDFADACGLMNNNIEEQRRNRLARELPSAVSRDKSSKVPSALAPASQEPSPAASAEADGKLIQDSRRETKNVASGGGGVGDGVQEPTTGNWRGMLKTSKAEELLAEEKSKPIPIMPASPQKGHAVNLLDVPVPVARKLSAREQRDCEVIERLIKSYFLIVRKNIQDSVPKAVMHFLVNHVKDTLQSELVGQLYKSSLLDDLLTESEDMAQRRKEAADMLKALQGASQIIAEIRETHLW
UniProt P63165, residues 1-97: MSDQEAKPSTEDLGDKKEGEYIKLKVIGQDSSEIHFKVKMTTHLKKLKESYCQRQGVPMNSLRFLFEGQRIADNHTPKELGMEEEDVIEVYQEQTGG

Molecular target: Dynamin-related protein 1 (Drp1) (human (endogenous in primary nucleus pulposus cells)) (UniProt O00429)
Test: co-IP; anti-Drp1 antibody with Protein A/G magnetic beads, 4 °C overnight, NP-40 lysates of human NPCs; blot for SUMO1; cells with or without MAPL overexpression and TNF-α (10 ng/mL, 24 h)

- binding: binds
Substance: Small ubiquitin-like modifier 1 (SUMO1) (from UniProt P63165 1-97)
